Earlier results, collected in patent publication US20140255476A1, “COMPOSITIONS, DEVICES, AND METHODS FOR TREATING INFECTIONS” (University of Washington through its Center for …, priority 2011, published 2014).
Some results were stated once for a whole list of compounds, not compound by compound. At least one structure is not confirmed: it was looked up by name or label, or the drawing left a doubt.

Test system: onychomycosis
Conditions: topical; cited from earlier work

SMILES	cure rates
Cc1cc(C2CCCCC2)n(O)c(=O)c1 [ciclopirox]	5-30%
CCC(C)(C)c1ccc(CC(C)CN2C[C@@H](C)O[C@@H](C)C2)cc1 (some centres unmarked) [amorolfin]	5-30%
